Some of these results come from one statement about several compounds together. At least one compound was matched to its structure with a doubt left. Peptide text beside a SMILES is read from it. * marks the point of attachment. Cbz = O=C(OCc1ccccc1)*
Tested on: SRSF-1
Experiment: Western blot of SRSF-1 in human adenocarcinoma cell lines
Format: cell-based
Settings: 24 h, 0.1, 1 and 10 μM, vs DMSO control, related to actin or GAPDH; efficacy increasing from Bortezomib to MG132 then MG262

Row | Compound | decrease in the amount of SRSF-1
1 | CC(C)C[C@@H](C=O)NC(=O)[C@H](CC(C)C)NC(=O)[C@H](CC(C)C)NC(=O)OCc1ccccc1 [MG132, Z-Leu-Leu-Leu-al] (Cbz-Leu-Leu-Leu-aldehyde) | −20% to −77%
2 | CC(C)C[C@H](NC(=O)[C@H](CC(C)C)NC(=O)[C@H](CC(C)C)NC(=O)OCc1ccccc1)B(O)O [MG262, Z-Leu-Leu-Leu-B(OH)2] | −20% to −77%
3 | CC(C)C[C@H](NC(=O)[C@H](Cc1ccccc1)NC(=O)c1cnccn1)B(O)O [bortezomib] | −20% to −77%
